No constants are given. Whether binding was seen depends on the method and setting. Binding seen in cells or lysates may run through a third protein. Some results given as binding are weak or reduced against the parent protein; the word gives no strength.
Key:
[1] = biological target: transcription factor EB (TFEB), wild type (UniProt P19484); experiment: covalent SUMO conjugation in HeLa cells; Ni-agarose pulldown of His-SUMO under denaturing conditions, Western blot
[2] = biological target: transcription factor EB (TFEB), wild type (UniProt P19484); experiment: covalent SUMO conjugation in HeLa cells; His pulldown under denaturing conditions, Western blot (FIG. 1)
[3] = biological target: transcription factor EB (TFEB), wild type (UniProt P19484); experiment: covalent SUMO conjugation in HeLa cells deprived of nutrients; His pulldown, Western blot (FIG. 2)
[4] = biological target: transcription factor EB (TFEB), wild type (UniProt P19484); experiment: covalent SUMO conjugation in HeLa His-SUMO2 cells treated with Torin-1 for 1-4 h; His pulldown, Western blot (FIG. 3)
[5] = biological target: transcription factor EB (TFEB), wild type (UniProt P19484); experiment: covalent SUMO conjugation in HeLa His-SUMO2 cells treated with Torin-1; His pulldown, Western blot (FIG. 3)
[6] = biological target: transcription factor EB (TFEB), wild type (UniProt P19484); experiment: covalent SUMO conjugation in HeLa cells deprived of nutrients for 1-4 h; His pulldown, Western blot (FIG. 2)

By UniProt entry, the sequences of proteins in these tests, tags left out. Residues count along the entry.
UniProt P19484: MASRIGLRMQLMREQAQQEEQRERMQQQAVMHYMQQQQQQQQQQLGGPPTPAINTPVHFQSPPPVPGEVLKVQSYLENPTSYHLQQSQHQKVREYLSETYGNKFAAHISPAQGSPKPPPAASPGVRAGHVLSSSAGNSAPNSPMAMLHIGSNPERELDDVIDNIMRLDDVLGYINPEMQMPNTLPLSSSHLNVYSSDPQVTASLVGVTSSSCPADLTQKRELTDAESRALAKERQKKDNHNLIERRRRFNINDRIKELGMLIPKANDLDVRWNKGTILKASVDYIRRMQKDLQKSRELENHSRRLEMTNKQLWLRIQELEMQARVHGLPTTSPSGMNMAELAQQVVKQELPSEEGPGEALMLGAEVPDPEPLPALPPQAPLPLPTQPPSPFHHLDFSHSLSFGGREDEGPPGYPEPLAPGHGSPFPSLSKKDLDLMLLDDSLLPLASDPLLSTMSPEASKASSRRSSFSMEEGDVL
UniProt P63165, residues 1-97: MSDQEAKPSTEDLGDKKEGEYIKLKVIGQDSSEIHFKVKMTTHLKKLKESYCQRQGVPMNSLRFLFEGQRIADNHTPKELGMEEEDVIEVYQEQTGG
UniProt P61956, residues 1-93: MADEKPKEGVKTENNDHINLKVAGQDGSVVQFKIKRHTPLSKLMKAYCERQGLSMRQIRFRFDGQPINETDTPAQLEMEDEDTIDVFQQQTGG

Measured: binding

6xHis-tagged SUMO1 (from UniProt P63165 1-97)
binds: [1] | [2]

6xHis-tagged SUMO2 (from UniProt P61956 1-93)
binds: all assays above
